{
  "sequences": {"note": "Amino acid sequences for entries named in this document (tags omitted). A change or cut given only in a name is not applied to a line headed by its entry. Residues count along the entry.", "UniProt Q95X71": "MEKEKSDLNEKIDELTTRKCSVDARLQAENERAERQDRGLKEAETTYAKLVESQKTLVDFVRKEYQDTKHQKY", "UniProt P02769, residues 25-607": "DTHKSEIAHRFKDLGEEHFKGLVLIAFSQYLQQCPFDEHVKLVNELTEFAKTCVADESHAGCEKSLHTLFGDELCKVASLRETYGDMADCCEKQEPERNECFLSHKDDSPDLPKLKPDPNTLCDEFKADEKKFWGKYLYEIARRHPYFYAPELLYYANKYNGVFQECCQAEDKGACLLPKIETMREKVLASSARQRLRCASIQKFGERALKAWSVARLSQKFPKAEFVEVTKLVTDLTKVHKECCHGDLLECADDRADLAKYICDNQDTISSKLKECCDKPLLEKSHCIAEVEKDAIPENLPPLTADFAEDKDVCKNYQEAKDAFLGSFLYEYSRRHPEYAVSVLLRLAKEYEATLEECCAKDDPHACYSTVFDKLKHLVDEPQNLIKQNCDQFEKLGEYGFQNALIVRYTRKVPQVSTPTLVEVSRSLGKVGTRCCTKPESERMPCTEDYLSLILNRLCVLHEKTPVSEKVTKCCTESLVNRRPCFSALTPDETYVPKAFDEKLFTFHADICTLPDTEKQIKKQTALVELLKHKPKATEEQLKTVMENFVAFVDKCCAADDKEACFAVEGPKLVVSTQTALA"},
  "source": "paper PMC12141670",
  "target": "SSNA-1 (C. elegans ortholog of Sjogren's Syndrome Nuclear Antigen 1) (C. elegans) (UniProt Q95X71)",
  "assay": "co-sedimentation; purified proteins incubated alone or together for 10 min at room temperature; 1.25 μM ZYG-1 or BSA, 10 μM SSNA-1 filaments or GMPCPP microtubules; 30 μL; 80,000 rpm (278,088 × g), TLA-120.2, 10 min, 25 °C; supernatant and pellet by SDS-PAGE and immunoblot; SSNA-1 in 50 mM phosphate pH 7.5, 150 mM NaCl, 10% glycerol, 1 mM DTT; both purified",
  "note": "Results are given in words; binding and its absence hold for the method and conditions named.",
  "data": [
    {"substance": "BSA (from UniProt P02769 25-607)", "values": [
      {"measurement": "binding", "value": "no binding (tested: 1.25 μM BSA, 10 μM SSNA-1)"}
    ]}
  ]
}
